Measured values reported in the supplement of paper PMC10849652.
This is one part of the list.

Sequences of proteins named here, by UniProt entry; tags and fusion partners are left off. A change or cut given only in a name is not applied to a line headed by its entry.
UniProt O15400: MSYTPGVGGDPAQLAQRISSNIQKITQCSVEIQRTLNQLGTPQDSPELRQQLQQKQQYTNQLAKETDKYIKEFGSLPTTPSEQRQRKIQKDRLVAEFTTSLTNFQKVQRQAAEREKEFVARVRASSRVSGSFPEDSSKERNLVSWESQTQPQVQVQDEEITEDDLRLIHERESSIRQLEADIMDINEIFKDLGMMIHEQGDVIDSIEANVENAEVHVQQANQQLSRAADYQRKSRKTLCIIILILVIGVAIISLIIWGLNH
UniProt O43815: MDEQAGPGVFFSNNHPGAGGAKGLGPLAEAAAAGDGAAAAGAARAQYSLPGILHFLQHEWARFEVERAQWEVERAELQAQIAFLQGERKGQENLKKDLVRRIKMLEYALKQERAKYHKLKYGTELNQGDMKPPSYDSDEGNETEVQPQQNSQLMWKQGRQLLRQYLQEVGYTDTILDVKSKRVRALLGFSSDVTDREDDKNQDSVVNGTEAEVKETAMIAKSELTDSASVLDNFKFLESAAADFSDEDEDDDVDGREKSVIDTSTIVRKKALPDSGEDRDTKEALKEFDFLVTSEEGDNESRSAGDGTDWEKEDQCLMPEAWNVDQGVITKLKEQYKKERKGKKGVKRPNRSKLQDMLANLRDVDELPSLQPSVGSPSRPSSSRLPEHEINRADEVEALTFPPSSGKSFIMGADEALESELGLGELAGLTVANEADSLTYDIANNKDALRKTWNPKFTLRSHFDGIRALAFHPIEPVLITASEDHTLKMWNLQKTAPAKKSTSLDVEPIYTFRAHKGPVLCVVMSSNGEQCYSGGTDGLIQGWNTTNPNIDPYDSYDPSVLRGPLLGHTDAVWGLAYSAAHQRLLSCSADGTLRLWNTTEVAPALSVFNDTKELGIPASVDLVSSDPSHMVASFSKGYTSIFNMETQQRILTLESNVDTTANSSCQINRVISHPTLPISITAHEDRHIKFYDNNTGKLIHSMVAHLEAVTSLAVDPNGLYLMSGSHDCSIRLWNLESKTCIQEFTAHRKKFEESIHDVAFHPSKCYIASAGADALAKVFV
UniProt Q16514: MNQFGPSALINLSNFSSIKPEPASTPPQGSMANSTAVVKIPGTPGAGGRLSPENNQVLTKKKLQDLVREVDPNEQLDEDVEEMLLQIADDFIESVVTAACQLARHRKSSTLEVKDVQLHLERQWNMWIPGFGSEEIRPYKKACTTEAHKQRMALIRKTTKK
UniProt Q15543, whole entry, looked up: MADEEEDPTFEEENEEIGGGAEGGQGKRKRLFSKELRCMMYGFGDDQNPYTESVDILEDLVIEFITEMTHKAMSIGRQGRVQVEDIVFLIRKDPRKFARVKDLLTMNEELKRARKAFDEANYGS
UniProt Q15544, whole entry, looked up: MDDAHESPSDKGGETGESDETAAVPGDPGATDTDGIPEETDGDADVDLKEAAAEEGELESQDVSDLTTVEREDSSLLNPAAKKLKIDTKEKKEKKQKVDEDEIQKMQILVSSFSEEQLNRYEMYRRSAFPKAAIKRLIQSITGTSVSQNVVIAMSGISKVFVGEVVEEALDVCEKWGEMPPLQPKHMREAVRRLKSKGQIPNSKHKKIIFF
UniProt O00268, whole entry, looked up: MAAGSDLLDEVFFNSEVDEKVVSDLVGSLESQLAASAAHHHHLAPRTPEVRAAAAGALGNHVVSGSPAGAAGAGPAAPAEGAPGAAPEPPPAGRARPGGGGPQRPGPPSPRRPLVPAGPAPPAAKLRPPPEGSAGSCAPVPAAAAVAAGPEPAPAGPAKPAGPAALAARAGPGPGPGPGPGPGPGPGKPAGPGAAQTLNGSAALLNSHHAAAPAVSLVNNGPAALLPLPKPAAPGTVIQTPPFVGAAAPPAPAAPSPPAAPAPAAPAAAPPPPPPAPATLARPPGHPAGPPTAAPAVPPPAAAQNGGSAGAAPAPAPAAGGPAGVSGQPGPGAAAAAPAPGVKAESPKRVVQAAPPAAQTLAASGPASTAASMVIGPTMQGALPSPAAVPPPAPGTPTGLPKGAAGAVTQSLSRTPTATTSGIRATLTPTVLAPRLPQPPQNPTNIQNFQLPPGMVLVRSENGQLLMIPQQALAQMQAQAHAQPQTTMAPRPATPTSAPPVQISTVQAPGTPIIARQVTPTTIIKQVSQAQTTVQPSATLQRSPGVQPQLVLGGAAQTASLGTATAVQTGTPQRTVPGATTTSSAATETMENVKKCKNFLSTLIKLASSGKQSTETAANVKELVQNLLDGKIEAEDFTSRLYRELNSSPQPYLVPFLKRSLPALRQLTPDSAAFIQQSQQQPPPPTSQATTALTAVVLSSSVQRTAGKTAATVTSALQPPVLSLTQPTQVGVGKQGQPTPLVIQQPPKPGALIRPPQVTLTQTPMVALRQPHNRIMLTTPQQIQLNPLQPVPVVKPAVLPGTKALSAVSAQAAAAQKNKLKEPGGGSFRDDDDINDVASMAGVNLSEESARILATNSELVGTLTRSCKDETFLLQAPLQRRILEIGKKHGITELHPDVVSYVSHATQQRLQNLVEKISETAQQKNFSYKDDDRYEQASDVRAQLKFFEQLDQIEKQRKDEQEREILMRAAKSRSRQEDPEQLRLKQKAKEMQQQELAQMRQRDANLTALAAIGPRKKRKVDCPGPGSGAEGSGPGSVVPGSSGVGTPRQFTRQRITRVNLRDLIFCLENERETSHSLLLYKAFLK
UniProt O43759: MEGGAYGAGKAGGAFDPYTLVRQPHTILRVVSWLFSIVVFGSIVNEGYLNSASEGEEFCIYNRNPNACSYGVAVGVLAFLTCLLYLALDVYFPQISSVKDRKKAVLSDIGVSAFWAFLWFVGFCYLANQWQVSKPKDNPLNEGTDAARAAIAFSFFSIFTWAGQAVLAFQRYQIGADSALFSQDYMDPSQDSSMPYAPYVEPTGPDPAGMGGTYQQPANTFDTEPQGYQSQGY
UniProt Q8TCJ2: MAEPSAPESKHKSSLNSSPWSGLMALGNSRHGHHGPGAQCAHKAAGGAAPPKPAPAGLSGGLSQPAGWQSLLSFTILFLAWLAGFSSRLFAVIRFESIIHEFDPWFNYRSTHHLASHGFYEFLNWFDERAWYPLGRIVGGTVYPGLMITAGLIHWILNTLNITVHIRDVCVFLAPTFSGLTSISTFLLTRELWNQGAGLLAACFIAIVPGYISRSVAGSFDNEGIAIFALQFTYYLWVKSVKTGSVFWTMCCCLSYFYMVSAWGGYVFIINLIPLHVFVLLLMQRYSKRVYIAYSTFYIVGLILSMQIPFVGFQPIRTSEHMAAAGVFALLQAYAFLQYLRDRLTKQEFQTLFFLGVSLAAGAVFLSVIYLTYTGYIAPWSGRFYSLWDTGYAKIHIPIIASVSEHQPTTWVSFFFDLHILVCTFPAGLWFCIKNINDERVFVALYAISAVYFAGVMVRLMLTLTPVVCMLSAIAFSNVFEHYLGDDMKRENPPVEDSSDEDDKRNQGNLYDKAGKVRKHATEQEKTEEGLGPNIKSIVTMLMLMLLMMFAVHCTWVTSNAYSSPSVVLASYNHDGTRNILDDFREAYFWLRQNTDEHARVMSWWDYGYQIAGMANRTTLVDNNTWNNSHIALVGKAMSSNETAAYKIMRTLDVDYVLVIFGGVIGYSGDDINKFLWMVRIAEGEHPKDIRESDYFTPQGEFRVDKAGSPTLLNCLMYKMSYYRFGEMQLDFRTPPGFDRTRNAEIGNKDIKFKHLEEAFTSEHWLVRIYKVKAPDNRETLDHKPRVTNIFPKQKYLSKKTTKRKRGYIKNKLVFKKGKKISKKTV
UniProt Q6UWL2: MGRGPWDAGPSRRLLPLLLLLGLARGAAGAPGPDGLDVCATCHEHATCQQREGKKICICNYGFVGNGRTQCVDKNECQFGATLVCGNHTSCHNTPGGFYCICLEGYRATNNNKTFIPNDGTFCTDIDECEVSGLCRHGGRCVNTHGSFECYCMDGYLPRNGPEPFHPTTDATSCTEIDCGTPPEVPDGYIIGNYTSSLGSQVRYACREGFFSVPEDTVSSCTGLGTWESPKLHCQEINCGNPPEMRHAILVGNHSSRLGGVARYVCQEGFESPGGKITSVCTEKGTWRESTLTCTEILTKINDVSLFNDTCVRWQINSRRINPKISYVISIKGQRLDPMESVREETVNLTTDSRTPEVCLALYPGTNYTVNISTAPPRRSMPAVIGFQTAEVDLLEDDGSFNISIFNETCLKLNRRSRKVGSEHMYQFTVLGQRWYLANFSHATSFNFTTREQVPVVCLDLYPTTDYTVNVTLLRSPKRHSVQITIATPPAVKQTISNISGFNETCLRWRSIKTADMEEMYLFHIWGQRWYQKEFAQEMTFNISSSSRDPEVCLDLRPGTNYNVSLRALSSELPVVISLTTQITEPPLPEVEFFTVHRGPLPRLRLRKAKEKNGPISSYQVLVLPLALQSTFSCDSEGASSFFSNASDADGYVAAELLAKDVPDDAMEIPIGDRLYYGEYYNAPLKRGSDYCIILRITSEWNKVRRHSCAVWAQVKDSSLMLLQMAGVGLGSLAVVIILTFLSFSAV
UniProt Q6ZWJ1: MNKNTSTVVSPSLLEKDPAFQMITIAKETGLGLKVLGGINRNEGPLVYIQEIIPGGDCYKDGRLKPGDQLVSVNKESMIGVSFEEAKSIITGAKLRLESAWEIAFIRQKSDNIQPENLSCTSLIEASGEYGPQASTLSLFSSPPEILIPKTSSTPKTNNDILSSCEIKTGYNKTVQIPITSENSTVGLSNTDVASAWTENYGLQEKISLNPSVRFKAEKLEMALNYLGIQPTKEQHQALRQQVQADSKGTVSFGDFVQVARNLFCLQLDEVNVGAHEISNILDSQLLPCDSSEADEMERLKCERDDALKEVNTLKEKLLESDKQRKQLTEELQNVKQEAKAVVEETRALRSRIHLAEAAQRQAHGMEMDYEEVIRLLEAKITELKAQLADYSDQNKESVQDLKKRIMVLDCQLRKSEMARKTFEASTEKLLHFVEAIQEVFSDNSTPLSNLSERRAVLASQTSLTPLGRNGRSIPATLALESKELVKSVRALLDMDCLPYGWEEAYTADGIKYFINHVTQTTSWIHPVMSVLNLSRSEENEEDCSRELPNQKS
UniProt O60347: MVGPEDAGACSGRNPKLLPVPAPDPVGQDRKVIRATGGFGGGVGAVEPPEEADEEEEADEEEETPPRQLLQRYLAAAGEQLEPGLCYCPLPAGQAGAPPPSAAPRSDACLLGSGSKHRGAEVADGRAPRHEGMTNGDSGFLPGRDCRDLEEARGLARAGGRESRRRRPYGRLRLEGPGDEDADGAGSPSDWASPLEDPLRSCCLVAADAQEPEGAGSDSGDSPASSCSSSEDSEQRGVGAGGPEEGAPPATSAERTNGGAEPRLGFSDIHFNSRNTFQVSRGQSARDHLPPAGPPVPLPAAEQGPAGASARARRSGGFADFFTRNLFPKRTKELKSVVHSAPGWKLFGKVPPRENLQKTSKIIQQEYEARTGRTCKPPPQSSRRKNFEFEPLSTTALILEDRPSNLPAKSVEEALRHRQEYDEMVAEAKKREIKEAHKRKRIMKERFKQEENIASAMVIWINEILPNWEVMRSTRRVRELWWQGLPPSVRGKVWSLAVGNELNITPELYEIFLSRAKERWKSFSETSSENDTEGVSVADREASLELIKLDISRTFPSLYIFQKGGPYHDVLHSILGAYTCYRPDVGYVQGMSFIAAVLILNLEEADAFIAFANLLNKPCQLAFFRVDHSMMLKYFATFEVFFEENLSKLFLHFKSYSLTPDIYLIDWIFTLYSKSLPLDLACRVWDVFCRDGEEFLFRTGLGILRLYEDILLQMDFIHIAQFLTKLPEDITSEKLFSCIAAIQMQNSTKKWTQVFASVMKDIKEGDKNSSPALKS
UniProt Q96C24: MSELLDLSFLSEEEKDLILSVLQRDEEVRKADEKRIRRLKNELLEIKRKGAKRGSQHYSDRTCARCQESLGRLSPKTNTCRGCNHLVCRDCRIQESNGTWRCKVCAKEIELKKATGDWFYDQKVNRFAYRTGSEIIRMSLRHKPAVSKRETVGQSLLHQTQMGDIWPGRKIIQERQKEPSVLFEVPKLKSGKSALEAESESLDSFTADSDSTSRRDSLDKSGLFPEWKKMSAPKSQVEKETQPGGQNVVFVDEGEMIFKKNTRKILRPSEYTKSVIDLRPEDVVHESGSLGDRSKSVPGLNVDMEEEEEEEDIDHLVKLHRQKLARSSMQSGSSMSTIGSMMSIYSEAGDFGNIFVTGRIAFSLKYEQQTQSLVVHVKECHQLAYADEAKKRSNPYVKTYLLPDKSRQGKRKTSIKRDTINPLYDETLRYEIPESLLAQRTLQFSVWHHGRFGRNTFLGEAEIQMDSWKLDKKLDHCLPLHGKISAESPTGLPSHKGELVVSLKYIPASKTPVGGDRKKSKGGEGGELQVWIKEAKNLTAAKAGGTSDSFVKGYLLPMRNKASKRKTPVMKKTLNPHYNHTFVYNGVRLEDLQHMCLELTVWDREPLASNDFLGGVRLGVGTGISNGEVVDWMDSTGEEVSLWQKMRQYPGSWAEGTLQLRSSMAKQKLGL

Tests used:
Assay in all cases: log2 fold change, soluble protein after heating vs DMSO (PISA); higher = thermal stabilisation; K562 cells, 10 uM, 30 min; active = over 0.2 and 3.5 SD of the protein, either way, in both replicates (recomputed)
[1] = compound: C1=CC=C(C=C1)[C@H](COC2=CC3=C(C=C2)NC(=O)N3)NC(=O)C4=CC=CN(C4=O)CC5=CC(=C(C=C5)F)F
How it was run: (§1)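 Soluble protein was defined as the supernatant after 21,000xg for 90 min. It came from K562 cells at 2×10^6 cells/mL given 10 μM compound for 30 min, heated in aliquots for 3 min across 48°C-58°C, pooled, and extracted in PBS with 0.5% NP-40 at 4°C, and was quantified by TMTpro 16plex LC-MS/MS with equalised channel sums. Thermal stability against control samples, from duplicates, is reported as log2 fold change.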

[2] = compound: CC1=C(SC2=C1C(=N[C@H](C3=NN=C(N32)C)CC(=O)N)C4=CC=C(C=C4)Cl)C
How it was run: as §1

[3] = compound: CC1=C2C(=CC=C1)N=C(N(C2=O)C3=CC=CC=C3C)CN4C=NC5=C(N=CN=C54)N
How it was run: as §1

[4] = compound: Cc1sc2c(c1C)C(c1ccc(Cl)cc1)=N[C@@H](CC(=O)OC(C)(C)C)c1nnc(C)n1-2
How it was run: as §1

[5] = compound: c1ccc([C@@H]2C[C@H]2NC2CCNCC2)cc1
How it was run: as §1

Measured: log2 fold change

STX7 (UniProt O15400)
inactive: [1] 0.023 | [2] 0.01 | [3] 0.027 | [4] -0.011 | [5] -0.011

STRN (UniProt O43815)
inactive: [1] -0.025 | [2] 0.011 | [3] -0.003 | [4] -0.108 | [5] -0.017

TAF12 (UniProt Q16514)
inactive: [1] -0.059 | [3] -0.086 | [4] -0.059

TAF13 (UniProt Q15543)
inactive: [3] 0.14 | [4] -0.261

STOML2 (UniProt Q9UJZ1)
inactive: [1] 0.016 | [2] 0.007 | [3] 0.007 | [4] -0.01 | [5] -0.059

TAF11 (UniProt Q15544)
inactive: [1] -0.025 | [2] -0.073 | [4] 0.007 | [5] 0.149

2 entries picked at random from those above:
TAF13 (UniProt Q15543)
inactive: [3] 0.14 | [4] -0.261

STOML2 (UniProt Q9UJZ1)
inactive: [1] 0.016 | [2] 0.007 | [3] 0.007 | [4] -0.01 | [5] -0.059

(continued)

STXBP5L (UniProt Q9Y2K9)
inactive: [2] -0.01 | [5] -0.063

TAF4 (UniProt O00268)
inactive: [1] 0.01 | [3] 0.133 | [4] -0.093

SYNGR1 isoform 3 (UniProt O43759)
inactive: [4] -0.095

STT3B (UniProt Q8TCJ2)
inactive: [1] 0.066 | [2] -0.056 | [3] -0.014 | [4] 0.003 | [5] 0.027

TAB2 (UniProt Q9NYJ8)
inactive: [3] 0.115 | [4] 0.031

TANGO6 (UniProt Q9C0B7)
inactive: [1] -0.139 | [2] 0.052 | [4] 0.018 | [5] -0.086

SUSD1 isoform 2 (UniProt Q6UWL2)
inactive: [1] 0.022 | [2] 0.006 | [3] 0.088 | [5] 0.006

STXBP4 (UniProt Q6ZWJ1)
inactive: [3] 0.114

TBC1D12 (UniProt O60347)
inactive: [2] 0.148 | [3] -0.219 | [4] -0.047 | [5] -0.151

STK3 isoform 2 (UniProt Q13188)
inactive: [1] 0.038 | [2] 0.015 | [3] 0.001 | [4] -0.013 | [5] 0.025

SYTL4 (UniProt Q96C24)
inactive: [1] -0.057 | [2] 0.014 | [4] 0.03 | [5] 0.028
